The values below come from paper PMC2794028.

The chains behind the UniProt entries cited, without tags or fusion partners.
UniProt P11974: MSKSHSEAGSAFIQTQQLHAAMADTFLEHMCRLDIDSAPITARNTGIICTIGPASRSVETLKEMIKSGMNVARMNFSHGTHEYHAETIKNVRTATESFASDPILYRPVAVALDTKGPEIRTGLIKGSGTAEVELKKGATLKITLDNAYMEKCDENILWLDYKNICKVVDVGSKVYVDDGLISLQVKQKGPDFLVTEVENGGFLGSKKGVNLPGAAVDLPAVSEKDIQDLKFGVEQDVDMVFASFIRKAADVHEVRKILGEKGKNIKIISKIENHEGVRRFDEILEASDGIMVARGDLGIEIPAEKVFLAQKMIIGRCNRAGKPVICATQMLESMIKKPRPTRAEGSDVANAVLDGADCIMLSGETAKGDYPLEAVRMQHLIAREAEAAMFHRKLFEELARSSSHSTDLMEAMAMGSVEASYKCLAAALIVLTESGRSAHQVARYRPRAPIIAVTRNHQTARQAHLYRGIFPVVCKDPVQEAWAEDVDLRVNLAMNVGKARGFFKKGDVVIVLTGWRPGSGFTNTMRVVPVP

No constants are given. Whether binding was seen depends on the method and setting. Sequences can lack the tags named with a protein.

This test deals with rabbit muscle pyruvate kinase (rabbit) (UniProt P11974). Description: ELISA; wells coated with 100 μl of 100 nM plasminogen (or rabbit muscle pyruvate kinase), over-coated with skimmed milk; 100 μl of 6 × His-tagged r-Pfen in different concentrations, 4 hours; detected with mouse anti r-Pfen serum (1:2000); OD at 405 nm; both purified. Background: ELISA stands for enzyme-linked immunosorbent assay.

B1: recombinant 6 × His-tagged P. falciparum enolase (enzyme, UniProt Q8IJN7 1-446)
chain: MAHVITRINAREILDSRGNPTVEVDLETNLGIFRAAVPSGASTGIYEALELRDNDKSRYLGKGVQKAIKNINEIIAPKLIGMNCTEQKKIDNLMVEELDGSKNEWGWSKSKLGANAILAISMAVCRAGAAANKVSLYKYLAQLAGKKSDQMVLPVPCLNVINGGSHAGNKLSFQEFMIVPVGAPSFKEALRYGAEVYHTLKSEIKKKYGIDATNVGDEGGFAPNILNANEALDLLVTAIKSAGYEGKVKIAMDVAASEFYNSENKTYDLDFKTPNNDKSLVKTGAQLVDLYIDLVKKYPIVSIEDPFDQDDWENYAKLTAAIGKDVQIVGDDLLVTNPTRITKALEKNACNALLLKVNQIGSITEAIEACLLSQKNNWGVMVSHRSGETEDVFIADLVVALRTGQIKTGAPCRSERNAKYNQLLRIEESLGNNAVFAGEKFRLQLN
With B1, the binding result is “no binding”.
